The results in this text go back to patent US6413730.

Assay [1] deals with T1, human Elk-L (hElk-L), full length (human) (UniProt P98172).
T1 sequence (tyrosine phosphorylated in some experiments (sites not mapped), looked up): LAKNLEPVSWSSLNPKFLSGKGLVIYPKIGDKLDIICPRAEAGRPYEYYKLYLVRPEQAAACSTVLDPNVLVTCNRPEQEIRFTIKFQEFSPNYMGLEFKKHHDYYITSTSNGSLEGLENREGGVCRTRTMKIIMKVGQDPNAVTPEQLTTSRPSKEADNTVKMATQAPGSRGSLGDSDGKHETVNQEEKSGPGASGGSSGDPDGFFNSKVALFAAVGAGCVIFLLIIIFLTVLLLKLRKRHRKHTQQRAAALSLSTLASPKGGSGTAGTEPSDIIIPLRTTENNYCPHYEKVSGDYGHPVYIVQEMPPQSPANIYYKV
Briefly: pull-down from Cos-1 lysates with 10 µg Nuk-Fc plus protein A sepharose, anti-phosphotyrosine blot.

For assay [2], the target named is T1, human Elk-L (hElk-L), full length (human). Briefly: pull-down from Cos-1 lysates with Nuk-Fc plus protein A sepharose, anti-phosphotyrosine blot.

These are yes or no findings as the source states them, for the method shown. In cells and extracts the contact can be indirect. Some entries that bind do so weakly or less than the wild type. Sequences can lack the tags named with a protein.

B1: Nuk extracellular domain IgG fusion protein (Nuk-Fc) (Fc fusion, UniProt P54763 19-543, looked up, not shown: a dimerising Fc or GST)
chain: VEETLMDSTTATAELGWMVHPPSGWEEVSGYDENMNTIRTYQVCNVFESSQNNWLRTKFIRRRGAHRIHVEMKFSVRDCSSIPSVPGSCKETFNLYYYEADFDLATKTFPNWMENPWVKVDTIAADESFSQVDLGGRVMKINTEVRSFGPVSRNGFYLAFQDYGGCMSLIAVRVFYRKCPRIIQNGAIFQETLSGAESTSLVAARGSCIANAEEVDVPIKLYCNGDGEWLVPIGRCMCKAGFEAVENGTVCRGCPSGTFKANQGDEACTHCPINSRTTSEGATNCVCRNGYYRADLDPLDMPCTTIPSAPQAVISSVNETSLMLEWTPPRDSGGREDLVYNIICKSCGSGRGACTRCGDNVQYAPRQLGLTEPRIYISDLLAHTQYTFEIQAVNGVTDQSPFSPQFASVNITTNQAAPSAVSIMHQVSRTVDSITLSWSQPDQPNGVILDYELQYYEKELSEYNATAIKSPTNTVTVQGLKAGAIYVFQVRARTVAGYGRYSGKMYFQTMTEAEYQTSIKEKLPL
With B1, the binding entry in assay [1] and in assay [2] was “binds” in each case.
